Measurements published in patent publication US12319694B2, “Heterocyclic nitrogen-containing purine derivatives, pharmaceutical preparations containing these derivatives and their use in neuroprotection” (UNIVERZITA PALACKEHO, priority 2019, dated 2025).

Test system: SH-SY5Y human neuroblastoma cell line
Assay: Oxidative stress measurement (dihydroethidium, superoxide) in SH-SY5Y, salsolinol-induced model of PD
Format: cell-based
Conditions: 10 μM compound with SAL 500 μM, 6 h, read-out: Oxidative stress (% of control)
Description: The assay was performed in 96-well microplate with 7000 cells/well. Next day, SH-SY5Y underwent differentiation protocol for 48 h see above. Treatment procedure remained the same as in previous section (Cell treatment and viability/cytotoxicity assays). Additionally, oxidative stress (OS) inducers such as 6-hydroxydopamine (6-OHDA) and glutamate (Glu) alone were used as […]. Negative controls determined threshold of excessive OS. […] After 30 minutes, DHE was read at 500 nm/580 nm (excitation/emission). DHE is cell permeable dye which is selective toward superoxide radical detection.

Compound: COc1cc2c(cc1OC)C(=O)C(CC1CCN(Cc3ccccc3)CC1)C2 (stereo not shown) [Donepezil, reference compound]
- activity at 10 µM: 120%
